Experimental data: PubChem BioAssay AID1508588 (Peter MacCallum Cancer Centre, 2020)
Assay: 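Which gene losses make BRAF-mutant melanoma cells more responsive to vemurafenib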 (primary screen). Cells: human WM266.4 melanoma cells (BRAF V600 mutant). Reagents: siRNA pool against human genes, 40 nM. Time to read-out: 96 h from transfection to read-out. Treatment: vemurafenib 300 nM (about IC25), added 48 h after transfection, for 48 h; comparison arm got DMSO vehicle only. Detection: 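Ratios to non-targeting siRNA for cell gain, counted as DAPI nuclei after minus before drug and averaged over two replicates, and for absorbance-read medium lactate per cell; both binned into fold-change classes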. Scale: cell gain with vemurafenib: higher = more cell gain than with non-targeting siRNA; lactate per cell with vemurafenib: higher = more lactate made per cell. Call rule: 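Enhancement is called by pairing each knock-down's vehicle-arm and drug-arm fold-change classes for viability or glycolysis; which class combinations qualify is not given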. Meaning of the calls: active = enhances vemurafenib effect; inactive = no enhancement seen.
Here is one part, drawn at random, of about 18,000 deposited reagents. 790 of them (4.4%) were called active. 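Calls rest on a combination of fold-change classes in drug and vehicle arms, not all shown here.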 Unmarked entries are inactive.

UBE2S (ubiquitin conjugating enzyme E2 S) → cell gain with vemurafenib: 0.82; lactate per cell with vemurafenib: 0.59
CD34 (CD34 molecule) → cell gain with vemurafenib: 0.36; lactate per cell with vemurafenib: 0.94
PIWIL4 (piwi like RNA-mediated gene silencing 4) → cell gain with vemurafenib: 0.46; lactate per cell with vemurafenib: 0.55
NGF (nerve growth factor) → cell gain with vemurafenib: 0.91; lactate per cell with vemurafenib: 0.3
SLC16A10 → cell gain with vemurafenib: 0.59; lactate per cell with vemurafenib: 0.64
TLCD3B (TLC domain containing 3B) → cell gain with vemurafenib: 0.43; lactate per cell with vemurafenib: 2.04
TMC6 (transmembrane channel like 6) → cell gain with vemurafenib: 0.35; lactate per cell with vemurafenib: 0.72
NUP58 (nucleoporin 58) → cell gain with vemurafenib: 0.18; lactate per cell with vemurafenib: 1.5
GPR176 (G protein-coupled receptor 176) → cell gain with vemurafenib: 0.68; lactate per cell with vemurafenib: 0.88
GTPBP2 (GTP binding protein 2) → cell gain with vemurafenib: 0.65; lactate per cell with vemurafenib: 0.64
C1orf159 (chromosome 1 open reading frame 159) → cell gain with vemurafenib: 0.6; lactate per cell with vemurafenib: 0.22
ESYT1 (extended synaptotagmin 1) → cell gain with vemurafenib: 0.54; lactate per cell with vemurafenib: 1.34
TOMM22 (translocase of outer mitochondrial membrane 22) → cell gain with vemurafenib: 0.7; lactate per cell with vemurafenib: 0.94

Laid out differently: 7 of the entries above
target gene,cell gain with vemurafenib,lactate per cell with vemurafenib
CD34 (CD34 molecule),0.36,0.94
PIWIL4 (piwi like RNA-mediated gene silencing 4),0.46,0.55
NGF (nerve growth factor),0.91,0.3
SLC16A10,0.59,0.64
TLCD3B (TLC domain containing 3B),0.43,2.04
TMC6 (transmembrane channel like 6),0.35,0.72
NUP58 (nucleoporin 58),0.18,1.5

Additional entries:
OR2K2 (olfactory receptor family 2 subfamily K member 2) → cell gain with vemurafenib: 0.68; lactate per cell with vemurafenib: 0.43
RB1 (RB transcriptional corepressor 1) → cell gain with vemurafenib: 1.09; lactate per cell with vemurafenib: 0.48
SLC39A14 → cell gain with vemurafenib: 0.61; lactate per cell with vemurafenib: 0.95
FUT1 (fucosyltransferase 1 (H blood group)) → cell gain with vemurafenib: 0.81; lactate per cell with vemurafenib: 1
ZNF254 (zinc finger protein 254) → cell gain with vemurafenib: 0.82; lactate per cell with vemurafenib: 0.84
HBQ1 (hemoglobin subunit theta 1) → cell gain with vemurafenib: 0.4; lactate per cell with vemurafenib: 2.16
PCDHB11 (protocadherin beta 11) → cell gain with vemurafenib: 0.69; lactate per cell with vemurafenib: 0.84
EXOC6 (exocyst complex component 6) → cell gain with vemurafenib: 0.49; lactate per cell with vemurafenib: 0.46
KRT7 (keratin 7) → cell gain with vemurafenib: 0.81; lactate per cell with vemurafenib: 0.44
DAND5 (DAN domain BMP antagonist family member 5) → cell gain with vemurafenib: 0.38; lactate per cell with vemurafenib: 2
ADGRG7 (adhesion G protein-coupled receptor G7) → cell gain with vemurafenib: 0.38; lactate per cell with vemurafenib: 1.63
TMEM175 (transmembrane protein 175) → cell gain with vemurafenib: 0.46; lactate per cell with vemurafenib: 0.74
TRDN (triadin) → cell gain with vemurafenib: 0.39 (active); lactate per cell with vemurafenib: 0.54
DRG2 (developmentally regulated GTP binding protein 2) → cell gain with vemurafenib: 0.7; lactate per cell with vemurafenib: 0.55
HOXC10 (homeobox C10) → cell gain with vemurafenib: 0.78; lactate per cell with vemurafenib: 0.79
AFTPH (aftiphilin) → cell gain with vemurafenib: 0.63; lactate per cell with vemurafenib: 0.7
EDC3 (enhancer of mRNA decapping 3) → cell gain with vemurafenib: 0.41; lactate per cell with vemurafenib: 1.12
RTKN2 (rhotekin 2) → cell gain with vemurafenib: 0.54; lactate per cell with vemurafenib: 1.08
PVR (PVR cell adhesion molecule) → cell gain with vemurafenib: 0.84; lactate per cell with vemurafenib: 0.46
CPLX3 (complexin 3) → cell gain with vemurafenib: 0.89; lactate per cell with vemurafenib: 0.97
GDF3 (growth differentiation factor 3) → cell gain with vemurafenib: 0.36; lactate per cell with vemurafenib: 1.36
CSRP2 (cysteine and glycine rich protein 2) → cell gain with vemurafenib: -0.04; lactate per cell with vemurafenib: 1.75
MAP3K6 (mitogen-activated protein kinase kinase kinase 6) → cell gain with vemurafenib: 0.6; lactate per cell with vemurafenib: 1.12
PCGF2 (polycomb group ring finger 2) → cell gain with vemurafenib: 1; lactate per cell with vemurafenib: 0.84
ZNF268 (zinc finger protein 268) → cell gain with vemurafenib: 0.15; lactate per cell with vemurafenib: 0.8
AK5 (adenylate kinase 5) → cell gain with vemurafenib: 0.73; lactate per cell with vemurafenib: 1.06
ECT2 (epithelial cell transforming 2) → cell gain with vemurafenib: 0.17; lactate per cell with vemurafenib: 1.98
